We go through 48 compounds from the supplement of paper PMC12873370.

Several values for one entry are separate records, joined by “and”; a condition that tells them apart may be missing. Equal entries are not always repeated. Some of the results follow. Most values come without repeats; read them as rough.

Experiment [1] has as its system MEPP (mouse ovarian epithelium Trp53/Pten KO). Put plainly: cell viability relative to untreated (fraction); higher = less growth inhibition. The following applies: 5 µM; 3 days.
Experiment [2] relates to PREPP (mouse prostate epithelium Trp53/Pten KO). The experiment is described as above. The following applies: 5 µM; 3 days.

Take `Nc1ccccc1S(=O)(=O)O`: the cell viability came out at 0.912 in experiment [1] and 1.21 in experiment [2].

For `O=C1CN(/N=C/c2ccc([N+](=O)[O-])o2)C(=O)N1`, the cell viability in experiment [1] stood at 0.86; in experiment [2], 0.683.

Turning to `NC(=O)[C@@H](N)Cc1c[nH]c2ccccc12`, the figures for the cell viability in experiment [1] and in experiment [2] were 0.845 and 0.931, respectively.

In the case of `NC(=O)N/N=C/c1ccc([N+](=O)[O-])o1`, the cell viability in experiment [1] is 1.29; in experiment [2], 0.919.

In the case of `CN1[C@@H](CC(=O)c2ccccc2)CCC[C@H]1C[C@H](O)c1ccccc1`, the cell viability in experiment [1] is 1.03; in experiment [2], 0.983.

In the case of `O=C1C[C@@H](c2ccc(O)cc2)Oc2cc(O)cc(O)c21`, the cell viability in experiment [1] turned out to be 1.29; in experiment [2], 0.97.

`C/C=C1\[C@H]2C=C(C)C[C@]1(N)c1ccc(=O)[nH]c1C2`: the cell viability was determined as 1.2 in experiment [1] and 0.88 in experiment [2].

For `Cc1ccc(O)cc1`, the figures for the cell viability in experiment [1] and in experiment [2] were 0.917 and 0.886, respectively.

For the compound `CC/C=C\CCO`, the cell viability in experiment [1] is 0.814; in experiment [2] it was 0.964.

`Cc1cc(C(=O)O)ccc1O`: the results for the cell viability in experiment [1] and in experiment [2] were 0.935 and 1.15, respectively.

For the compound `Nc1ccc(S(=O)(=O)NC(=O)c2ccccc2)cc1`, the cell viability was 0.973 in experiment [1] and 1.02 in experiment [2].

For the compound `Cc1ncc(CO)c(C=O)c1O`, the cell viability in experiment [1] stood at 0.763; in experiment [2] it was 0.992.

Regarding `O=C(O)CCCc1c[nH]c2ccccc12`, the cell viability turned out to be 0.832 in experiment [1] and 0.829 in experiment [2].

In the case of `COc1cc2c(cc1O)C[C@H]1c3cc(O)c(OC)cc3CC[N@@+]1(C)C2`, the cell viability in experiment [1] stood at 0.936; in experiment [2], 1.06.

As for `OCC(CO)N[C@H]1C[C@](O)(CO)[C@@H](O)[C@H](O)[C@H]1O`, the cell viability was 1.33 in experiment [1] and 0.948 in experiment [2].

In the case of `O=C(O)[C@H]1O[C@@H](O)[C@H](O)[C@@H](O)[C@@H]1O`, the cell viability in experiment [1] amounted to 1.07; in experiment [2] it was 1.03.

`C/C=C(/C)C(=O)OC(C)(C)[C@@H]1Cc2c(ccc3ccc(=O)oc23)O1`: the cell viability in experiment [1] came out at 1.26; in experiment [2], 1.

For the compound `O=C(/C=C/c1ccc(O)c(O)c1)O[C@@H]1[C@H](O)C[C@@](O)(C(=O)O)C[C@H]1OC(=O)/C=C/c1ccc(O)c(O)c1`, the values for the cell viability in experiment [1] and in experiment [2] were 0.939 and 0.889, respectively.

For `CC[C@@]1(O)C(=O)OCc2c1cc1n(c2=O)Cc2cc3c(CN(C)C)c(O)ccc3nc2-1`, the cell viability in experiment [1] turned out to be 0.516; in experiment [2] it was 0.828.

As for `C[C@]12CC[C@@H]3c4ccc(OS(=O)(=O)O)cc4CC[C@H]3[C@@H]1CCC2=O`, the cell viability in experiment [1] was determined as 0.842; in experiment [2], 0.845.

Consider `COc1cc(CO)ccc1O`, for which the cell viability in experiment [1] is 0.918; in experiment [2], 1.03.

Consider `CC1(C)S[C@@H]2[C@H](NC(=O)COc3ccccc3)C(=O)N2[C@H]1C(=O)O`, for which the cell viability in experiment [1] amounted to 0.871; in experiment [2], 1.16.

As to `C[N+]1(C)CCCC1C(=O)O` (stereo unspecified), the results for the cell viability in experiment [1] and in experiment [2] were 0.934 and 0.733, respectively.

In the case of `CCCCCCCCCCCCCCCCCC(=O)O`, the cell viability in experiment [1] was 0.911; in experiment [2], 0.871.

For the compound `O=C(/C=C/c1ccc(O)c(O)c1)OCCc1ccccc1`, the cell viability worked out at 1.07 in experiment [1] and 0.867 in experiment [2].

In the case of `CC(C)OC(=O)C(C(=O)OC(C)C)=C1SC=CS1`, the values for the cell viability in experiment [1] and in experiment [2] were 1 and 0.842, respectively.

As for `O=C1Cc2ccccc2N1`, the cell viability in experiment [1] amounted to 0.835; in experiment [2] it was 0.856.

With `C1CCN2C[C@@H]3C[C@@H](CN4CCCC[C@@H]34)[C@H]2C1`, the cell viability in experiment [1] was found to be 0.907; in experiment [2], 1.

For `CC(=O)C(C)O` (stereo unspecified), the cell viability in experiment [1] is 1.09; in experiment [2], 0.881.

Turning to `CC(C)(O/N=C(\C(=O)N[C@@H]1C(=O)N2C(C(=O)[O-])=C(C[n+]3ccccc3)CS[C@H]12)c1csc(N)n1)C(=O)O`, the cell viability in experiment [1] is 0.747 and 0.82; in experiment [2] it was 0.919 and 0.953.

Regarding `C/C1=C\CC[C@]23O[C@H]2[C@@H](OC3=O)c2c(C)coc2C1`, the cell viability in experiment [1] was 1.35; in experiment [2], 0.929.

As to `CCC/C=C1\OC(=O)C2=C1CCC1C3C=C4C(=O)O/C(=C\CCC)C4(CC3)C21` (stereo unspecified), the cell viability in experiment [1] was determined as 0.933; in experiment [2] it was 0.902.

Consider `N=C(N)NCCN1CCCCCCC1`, for which the cell viability in experiment [1] was 1.12; in experiment [2], 1.04.

On to `O=C(O)Cc1cccc(O)c1`, for which the cell viability is 1.33 in experiment [1] and 1.06 in experiment [2].

In the case of `O=C(O)/C=C/C(=O)O`, the cell viability in experiment [1] was 1.09; in experiment [2] it was 0.919.

`O=c1ccn2c(n1)O[C@H]1[C@H](O)[C@@H](CO)O[C@H]12`: the cell viability in experiment [1] came out at 0.962; in experiment [2], 0.859.

Consider `COc1cc(C(=O)O)cc(OC)c1O`, for which the cell viability is 0.904 in experiment [1] and 0.938 in experiment [2].

For `O=c1cc(-c2ccccc2)oc2cc(O)cc(O)c12`, the cell viability in experiment [1] amounted to 1.81; in experiment [2], 0.85.

For `COc1ccc(-c2coc3cc(O[C@@H]4O[C@H](CO)[C@@H](O)[C@H](O)[C@H]4O)ccc3c2=O)cc1O`, the cell viability came out at 1.43 in experiment [1] and 0.883 in experiment [2].

As for `C#C[C@]1(O)CC[C@H]2[C@@H]3CCC4=CC(=O)CC[C@@H]4[C@H]3CC[C@@]21CC`, the cell viability was determined as 0.886 in experiment [1] and 0.965 in experiment [2].

For the compound `NC[C@@H]1O[C@H](O[C@H]2[C@@H](O)[C@H](O[C@@H]3[C@@H](O)[C@H](N)C[C@H](N)[C@H]3O[C@H]3O[C@H](CO)[C@@H](O)[C@H](O)[C@H]3N)O[C@@H]2CO)[C@H](N)[C@@H](O)[C@@H]1O`, the cell viability in experiment [1] stood at 0.97; in experiment [2], 0.803.

Take `C[C@H]1COc2c(N3CCN(C)CC3)c(F)cc3c(=O)c(C(=O)O)cn1c23`: the cell viability turned out to be 1 in experiment [1] and 0.939 in experiment [2].

For `C/C1=C/CC[C@H](C)C(=O)C[C@@H](C(C)C)C(=O)C1`, the cell viability in experiment [1] was determined as 1.33; in experiment [2], 1.13.

Turning to `COc1ccc(-c2coc3cc(O)ccc3c2=O)cc1O`, the cell viability amounted to 1.7 in experiment [1] and 0.917 in experiment [2].

With `C=C(C)[C@@H]1CC[C@]2(C(=O)O)CC[C@]3(C)[C@H](CC[C@@H]4[C@@]5(C)CC[C@H](O[C@@H]6OC[C@H](O)[C@H](O)[C@H]6O[C@@H]6O[C@@H](C)[C@H](O)[C@@H](O)[C@H]6O)[C@@](C)(CO)[C@@H]5CC[C@]43C)[C@@H]12`, the cell viability worked out at 0.936 in experiment [1] and 0.698 in experiment [2].

As for `COc1cc(/C=C/CO)cc(OC)c1O[C@@H]1O[C@H](CO)[C@@H](O)[C@H](O)[C@H]1O`, the figures for the cell viability in experiment [1] and in experiment [2] were 1.24 and 1.07, respectively.

For `O=C(O)/C=C\C=C/C(=O)O`, the values for the cell viability in experiment [1] and in experiment [2] were 1 and 1.08, respectively.

As for `OCC(O)CO`, the cell viability in experiment [1] was 0.999; in experiment [2], 0.994.
